PubChem BioAssay AID1259254, NCATS, 2017

- Test: 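Gene knock-downs that lead to re-replication, shown by excess G2 DNA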 (primary screen)
- Cells: human HCT116 colorectal cancer cells
- Reagent: single siRNA against human genes
- Timing: 3 days
- Detection: 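Nuclei stained with Hoechst and imaged; cell-cycle phase assigned by DNA content; G2 share scaled per plate, non-targeting siRNA 0%, GMNN siRNA 100%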
- Reading the numbers: G2 robust z-score: higher = more G2 cells, more excess DNA replication
- Active means: 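An siRNA counts as active if its G2 robust z-score lies at least 5 MADs above the screen median; here such calls match roughly 38% of GMNN control or more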
In all, the deposit lists about 59,000 reagents; below is an unselected part. About 1,550 of all reagents (2.6%) count as active. 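G2 share is only a proxy for re-replication; each gene was hit by three separate siRNAs, and active genes were retested.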 Entries without a mark were called inactive. The numbers tell different reagents against one gene apart. Further read-outs or replicates are left out here. The record does not give: the amount of reagent.

gene | reagent no. | G2 robust z-score
NSFL1C | 1 | 4.91
NSFL1C | 2 | 0.0818
NSFL1C | 3 | 0.163
NDUFB11 | 1 | -0.668
NDUFB11 | 2 | -0.862
NDUFB11 | 3 | 4.7
MUSK | 1 | -0.0685
MUSK | 2 | -0.252
MUSK | 3 | -0.306
PLIN1 | 1 | 0.342
PLIN1 | 2 | -0.246
PLIN1 | 3 | 3.81
LTA4H | 1 | 2.26
LTA4H | 2 | -1.22
LTA4H | 3 | -0.775
ISCU | 1 | -0.219
ISCU | 2 | 1.41
ISCU | 3 | 0.533
DCAF4L2 | 1 | -0.604
DCAF4L2 | 2 | 1.94
DCAF4L2 | 3 | -1.03
MEA1 | 1 | 0.245
MEA1 | 2 | 0.86
MEA1 | 3 | 0.884
PLEKHA8P1 | 1 | -0.704
PLEKHA8P1 | 2 | -0.588
PLEKHA8P1 | 3 | 2.3
EIF3I | 1 | 3.34
EIF3I | 2 | 1.19
EIF3I | 3 | 4.18
HACE1 | 1 | -0.234
HACE1 | 2 | -0.666
HACE1 | 3 | 1.64
DEFA6 | 1 | 0.576
DEFA6 | 2 | -0.0464
DEFA6 | 3 | 0.516
CYP51A1 | 1 | 0.318
CYP51A1 | 2 | 5.09 (active)
CYP51A1 | 3 | 4.12
ECH1 | 1 | 6.67 (active)
ECH1 | 2 | 0.461
ECH1 | 3 | 0.00342
ACSM1 | 1 | 0.229
ACSM1 | 2 | -0.559
ACSM1 | 3 | -0.333
LINC01973 | 1 | -0.831
LINC01973 | 2 | 0.311
LINC01973 | 3 | 0.781
PRTFDC1 | 1 | 5.31 (active)
PRTFDC1 | 2 | 0.149
PRTFDC1 | 3 | 3.21
NUP153 | 1 | 1.36
NUP153 | 2 | -0.00421
NUP153 | 3 | 0.347
LOC647481 | 1 | -0.895
LOC647481 | 2 | 1.9
LOC647481 | 3 | 1.27
ACTN2 | 1 | 0.079
ACTN2 | 2 | 0.348
ACTN2 | 3 | -0.825
PRKCZ | 1 | 0.286
PRKCZ | 2 | -1.62
PRKCZ | 3 | -0.37
SATL1 | 1 | -0.295
SATL1 | 2 | 2.85
SATL1 | 3 | 0.379
NME8 | 1 | -1.59
NME8 | 2 | 0.847
NME8 | 3 | 0.525

10 entries already listed, sorted by “G2 robust z-score”, ascending.
gene | reagent no. | G2 robust z-score
ACSM1 | 2 | -0.559
DEFA6 | 2 | -0.0464
ECH1 | 3 | 0.00342
ACSM1 | 1 | 0.229
CYP51A1 | 1 | 0.318
ECH1 | 2 | 0.461
DEFA6 | 3 | 0.516
CYP51A1 | 3 | 4.12
CYP51A1 | 2 | 5.09 (active)
ECH1 | 1 | 6.67 (active)
